± gives the uncertainty stated by the source. Many of these values have a large error.
Assay: self-splicing fitness, log relative to wild type (ln ratio); higher = more splicing; Tetrahymena group I intron in knt gene, E. coli kanamycin selection, DiMSum; sequences stand for … in CUCUCU…GGAGGGAAAAGUUAUCAGGCAUGCACCUGGUAGCUAGUCUUUAAACCAAUAGAUUGCAUCGGUUUAAAAGGCAAGACCGUCAAAUUGCGGGAAAGGGGUCAACAGCCGUUCAGUACCAAGUCUCAGGGGAAACUUUGAGAUGGCCUUGCAAAGGGUAUGGUAAUAAGCUGACGGACAUGGUCCUAACCACGCAGCCAAGUCCUAAGUCAACAGAUCUUCUGUUGAUAUGGAUGCAGUUCACAGACUAAAUGUCGGUCGGGGAAGAUGUAUUCUUCUCAUAAGAUAUAGUCGGACCUCUCCUUAAUGGGAGCUAGCGGAUGAAGUGAUGCAACACUGGAGCCGCUGGGAACUAAUUUGUAUGCGAAAGUAUAUUGAUUAGUUUUGGAGUACUCGUGGUCG
How it was run: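 Colonies from six replicate transformations of E. coli BL21(DE3) were pooled and amplicon-sequenced on an Illumina HiSeq 2500. The library placed an intron with all eight P1ex-region nucleotides randomised inside the knt kanamycin-resistance gene on pET-22b(+), and cells grew overnight at 37°C or 30°C on LB agar with or without 25 μg/mL kanamycin (plus 100 μg/mL carbenicillin, 50 μM IPTG, 0.2% rhamnose). Fitness is the DiMSum error-weighted combination of wild-type-normalised replicate fold changes, kanamycin versus none.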

Sequence	self-splicing fitness (ln) (30 °C)	self-splicing fitness (ln) (37 °C)
AAUGAGCAAUAUUACGCAAA	-3.02 ± 0.63	–
UUGGAGCAAUAUUACGAGCA	-3.18 ± 0.37	-1.74 ± 0.31
AGAGAGCAAUAUUACGUGCU	-4.39 ± 0.51	–
AGCCAGCAAUAUUACGAAUG	-4.5 ± 0.51	–
CGUGAGCAAUAUUACGUCGC	–	-2.27 ± 0.65
AUCUAGCAAUAUUACGGAAA	-2.23 ± 0.2	-1.66 ± 0.18
GUUCAGCAAUAUUACGUCCG	–	-0.538 ± 0.68
UGAGAGCAAUAUUACGAUAA	–	-1.5 ± 0.69
AGGCAGCAAUAUUACGCUUC	-3.75 ± 0.59	–
UAAUAGCAAUAUUACGCUAC	–	-3.63 ± 0.73
CUGGAGCAAUAUUACGUAGA	-4.83 ± 0.51	-2.67 ± 0.2
UAAAAGCAAUAUUACGCUAC	–	-2.97 ± 0.52
CCCCAGCAAUAUUACGAGAG	-3.91 ± 0.23	-2.05 ± 0.17
UCGUAGCAAUAUUACGGAUG	-2.36 ± 0.78	–
GGAUAGCAAUAUUACGUAUC	-2.62 ± 1.1	-1.91 ± 0.51
GUGGAGCAAUAUUACGUUGC	–	-2.08 ± 1.1
CUUCAGCAAUAUUACGGCCU	-3.51 ± 0.6	–
GUUGAGCAAUAUUACGGAAC	–	-0.44 ± 0.71
CGUAAGCAAUAUUACGUUAG	-1.34 ± 0.072	-0.964 ± 0.081
AUCUAGCAAUAUUACGCGAU	-5.66 ± 0.71	–
CCAGAGCAAUAUUACGACAA	-2.56 ± 0.62	–
GCGAAGCAAUAUUACGGAGU	-3.66 ± 0.2	-3.43 ± 0.42
CGAGAGCAAUAUUACGCUCG	-4.8 ± 0.51	–
GCAAAGCAAUAUUACGCAGG	-2.33 ± 0.13	-2.02 ± 0.19
AGAGAGCAAUAUUACGUAGG	-3.88 ± 0.76	–
UCGUAGCAAUAUUACGAAUC	–	-2.8 ± 1

Sequence	self-splicing fitness (ln) (30 °C)	self-splicing fitness (ln) (37 °C)
CCGGAGCAAUAUUACGCCCG	–	-2.07 ± 1.1
CAGGAGCAAUAUUACGAAAA	–	-2.57 ± 1.1
GCGAAGCAAUAUUACGCCCU	-3.14 ± 0.76	–
UGAUAGCAAUAUUACGCCGC	–	-1 ± 0.92
UAUAAGCAAUAUUACGCCGU	–	-1.09 ± 0.7
AACCAGCAAUAUUACGAAUG	-2.22 ± 0.089	-1.89 ± 0.083
UUUAAGCAAUAUUACGUCAC	-3.03 ± 0.75	-2.5 ± 0.54
UCCCAGCAAUAUUACGCCAC	-2.29 ± 0.51	-0.194 ± 0.53
CACCAGCAAUAUUACGAGAC	-4.55 ± 0.59	–
GAAUAGCAAUAUUACGGGAG	-3.25 ± 0.52	–
CGCCAGCAAUAUUACGAUCC	–	-2.89 ± 1.1
UAUGAGCAAUAUUACGCAUC	-3.27 ± 1.1	-2.15 ± 0.65
CUAGAGCAAUAUUACGAGCA	-4.76 ± 0.51	–
CGACAGCAAUAUUACGGAUU	-3.77 ± 0.17	-1.73 ± 0.099
UCGGAGCAAUAUUACGCGUC	–	-1.54 ± 1.2
UGGGAGCAAUAUUACGGCGU	-2.71 ± 1.1	–
CUUAAGCAAUAUUACGCACC	–	-3.09 ± 1
UUUUAGCAAUAUUACGCUGC	-2.09 ± 0.82	-1.74 ± 0.53
CGAAAGCAAUAUUACGAGAC	-3.88 ± 0.51	–
CCAGAGCAAUAUUACGCCCA	-2.71 ± 0.66	-1.33 ± 0.64
GUUGAGCAAUAUUACGAGUA	-3.39 ± 1	–
UUAGAGCAAUAUUACGGGCU	–	-2.35 ± 0.63
UAGGAGCAAUAUUACGAAGG	–	0.928 ± 1.1
GUCAAGCAAUAUUACGGCUG	–	-3.53 ± 0.52
CUGAAGCAAUAUUACGUUCC	-4.8 ± 0.58	–

From the supplement of paper PMC7877785
